The values below come from paper PMC12040169 (PLOS Biology, 2025).

This is one part of the list.

This assay concerns T1, CTL2-GFP (C. trachomatis L2/434/Bu, GFP-expressing).
T1 construct: L2/434/Bu, GFP-expressing
The arrangement: species or system HeLa; Intracellular C. trachomatis growth in HeLa cells, bulk GFP fluorescence relative to DMSO. Conditions: bulk GFP, single well; 28.5 h, 10 µM; inhibitor.
In the case of `CCOC(=O)CCNC(=O)c1ccccc1-n1cccc1` [CBK149611], the “% of control remaining” value is 101.261%.
Consider `OCc1ccc(-c2nccnc2NCc2cccc(C(F)(F)F)c2)cc1` [CBK037076], for which the “% of control remaining” value is reported as 74.2844%.
The result for `C[C@H](c1ccccc1)n1c(=O)[nH]c2ncc(-c3ccc(N(C)C)cc3)nc21` [CBK064367] reads 178.594%; that for `Brc1ccc2c(c1)[C@H]1C=CC[C@H]1[C@@H](c1ccccc1)N2` [CBK303238], 105.521%; that for `COc1ccc(-c2coc3c(C)c4oc(=O)c(CC(=O)O)c(C)c4cc23)cc1` [CBK269403], 96.6384%.
The result for `O=C(O)/C=C/C(=O)Nc1cccc(C(=O)O)c1` [CBK260988] reads 112.833%; that for `Cc1ccc(S(=O)(=O)N(CC(=O)NCC2CCCO2)c2cccc(C)c2C)cc1` (stereo not drawn) [CBK265339], 130.817%; that for `O=C1CCN(Cc2nc(-c3cccc(C(F)(F)F)c3)no2)CCN1` [CBK306368], 91.0294%.
As for `O=S(=O)(c1ccc(F)c(Cl)c1)N1CCCN(Cc2ccccc2)CC1` [CBK045211], the “% of control remaining” value is on record as 92.7084%.
The result for `Cc1cc(CN(C)Cc2c(-c3ccccc3)nn(C)c2C)n[nH]1` [CBK281707] reads 108.129%; that for `COc1ccc(NC(=O)N[C@@H]2CC[C@@]3(c4ccc(OC)c(OC)c4)CCN(C)[C@H]3C2)c(C)c1` [CBK036460T], 88.188%.
In the case of `CCOC(=O)CN1CCN(c2nccnc2OC2CCCCC2)CC1` [CBK082837T], the “% of control remaining” value was 76.4642%.
Regarding `COCCCNC(=S)N/N=C/c1ccco1` [CBK006272], the “% of control remaining” value was determined as 100.002%.
The result for `Cn1nccc1C(=O)N1CCC2(C/C=C/COc3ccccc3C(=O)NC[C@@H](Cc3ccccc3)NC2=O)CC1` [CBK292183] reads 121.85%; that for `COc1cc(OC)c(NC(=O)C(C)Oc2ccc(Br)cc2)cc1Cl` (stereo not drawn) [CBK266791], 147.574%.
The same measure for `COC(=O)c1ccccc1NC(=O)CSCc1ccc(Cl)cc1Cl` [CBK131712]: 102.775%; for `Cc1cn([C@H]2C[C@@H](O)[C@@H](CO)O2)c(N)nc1=O` [CBK201327]: 154.984%.
The result for `CCOc1nc(=O)c(C)cn1C1CC(O)C(CO)O1` (stereo not drawn) [CBK201334] reads 137.692%.
With `Cc1nn(C)cc1CN(CCCn1ccnc1)Cc1cccc(F)c1` [CBK283098], the “% of control remaining” value amounted to 138.059%.
Regarding `CN(C)S(=O)(=O)c1ccc(NC(=O)CCC(=O)O)cc1` [CBK267156], the “% of control remaining” value was found to be 162.364%.
The same measure for `CN(C)C(=O)N1CCC2(CC1)CC(=O)N(Cc1ccc(S(C)(=O)=O)cc1)C2=O` [CBK155957]: 122.391%.
The same measure for `Cn1ccc(C(=O)NC2CCN(c3ncccn3)CC2)cc1=O` [CBK304280]: 114.621%; for `O=C1CCC(=O)N1CCn1c(=O)n(C(=O)CCC2CCCC2)c2ccccc21` [CBK106495]: 112.825%.
The result for `CNC(=O)CSc1nc2cc(Cl)ccc2c(=O)n1CC1CCCO1` (stereo not drawn) [CBK305937] reads 155.759%; that for `CC(=O)C(C)n1c(=O)c2c(nc3oc(C(C)(C)C)cn32)n(C)c1=O` (stereo not drawn) [CBK306027], 124.593%.
On to `O=C(Nc1ncc(Cc2ccc(F)cc2)s1)C1CCCCC1` [CBK058611], for which the “% of control remaining” value turned out to be 125.351%.
The result for `CCCC(=O)Nc1cccc(NC(=O)c2nc[nH]n2)c1` [CBK269604] reads 103.845%.
The same measure for `CC1CCCCC1NC(=O)NC(=O)Cn1nnc2ccccc2c1=O` (stereo not drawn) [CBK306046]: 94.3333%; for `COc1ccc(-c2nc(-c3cccc(F)c3)cnc2N)cc1OC` [CBK063948]: 154.888%.
The same measure for `COc1cc(Br)c(OC)c(C(=O)N(C)Cc2cnn(C)c2)c1` [CBK244011]: 138.76%; for `COc1cccc(-c2ccc(C(=O)NCc3ccccc3SC)c(N3CCN(C(=O)c4ccco4)CC3)n2)c1` [CBK106025]: 96.6371%; for `O=C(NCC1COc2ccccc2O1)c1ccc(-c2ccc(OC(F)(F)F)cc2)nc1` (stereo not drawn) [CBK156214]: 119.208%.
In the case of `O=C(c1cncnc1)N1CCc2ccccc21` [CBK200272], the “% of control remaining” value is recorded as 77.656%.
The result for `O=C1CC(c2ccccc2F)C2=C(COC2=O)N1` (stereo not drawn) [CBK086692] reads 99.4195%; that for `Cc1nn(CC(C)C)c(Cl)c1C(=O)Nc1nc2ccc(F)cc2s1` [CBK252188], 102.236%.
For `COc1ccc(-c2nnc(SCC(=O)Nc3cc(C)on3)n2C2CCCCC2)cc1` [CBK297510], the “% of control remaining” value came out at 135.733%.
Turning to `CC(CCN1CCN(Cc2ccccc2)CC1)c1ccccc1` (stereo not drawn) [CBK261902], the “% of control remaining” value is 100%.
The same measure for `Cc1ccc2nc(NC(=O)c3cc(C)n(C)n3)sc2c1` [CBK287668]: 107.281%; for `CC(=O)c1c[nH]c(=O)[nH]c1=O` [CBK012093]: 105.843%.
The same measure for `Cc1nc(-c2cc3c(s2)CCN(CC(O)COCc2ccco2)C3)cs1` (stereo not drawn) [CBK304460]: 143.642%; for `CCOC(=O)COc1ccc(S(=O)(=O)N2CCN(Cc3ccc4c(c3)OCO4)CC2)cc1` [CBK074492]: 136.49%; for `CCN(Cc1ccncc1)C(=O)NCCc1ccc(OC)cc1` [CBK155149]: 110.867%.
The result for `CN(Cc1ccccc1N1CCCC1)C(=O)Cc1cn2ccsc2n1` [CBK305897] reads 54.5249%; that for `CN(C)c1nc2n(c(=O)n1)CCS2` [CBK019025], 100.905%.
For the compound `N=C(N)SCc1ccc(CSC(=N)N)cc1` [CBK278309C], the “% of control remaining” value is reported as 100%.
Turning to `COC(=O)[C@@H]1Cc2ncn(C(C)C)c2CN1C(=O)C1CCCCC1` [CBK288989], the “% of control remaining” value is listed as 144.182%.
The same measure for `Cc1c(C(C)NCC(C)(C)N(C)C)cnn1-c1ccc(C#N)cc1` (stereo not drawn) [CBK306447]: 89.0244%; for `CCC1(C)Cc2sc3[nH]c(=O)c(SCC(N)=O)nc3c2CO1` (stereo not drawn) [CBK020581]: 115.166%; for `OC(COCc1ccco1)CN1CCc2sccc2C1C1CC1` (stereo not drawn) [CBK305167]: 87.7969%.
The result for `Cc1c(C)n(Cc2ccco2)c2ncnc(NCCCC(=O)O)c12` [CBK307562] reads 121.836%.
The same measure for `COc1ccc(N(CC(=O)N2CCN(C)CC2)S(=O)(=O)c2ccc(C)c([N+](=O)[O-])c2)cc1` [CBK264051]: 100%.
